Results are given in words; binding and its absence hold for the method and conditions named. In cells and extracts the contact can be indirect. Here binding means that the protein was enriched with, or labelled near, the bait; the list need not be complete. Tags and fused reporters may be left off the sequences shown.
T1: FLAG-STING (mouse) (UniProt Q3TBT3)
T1 sequence: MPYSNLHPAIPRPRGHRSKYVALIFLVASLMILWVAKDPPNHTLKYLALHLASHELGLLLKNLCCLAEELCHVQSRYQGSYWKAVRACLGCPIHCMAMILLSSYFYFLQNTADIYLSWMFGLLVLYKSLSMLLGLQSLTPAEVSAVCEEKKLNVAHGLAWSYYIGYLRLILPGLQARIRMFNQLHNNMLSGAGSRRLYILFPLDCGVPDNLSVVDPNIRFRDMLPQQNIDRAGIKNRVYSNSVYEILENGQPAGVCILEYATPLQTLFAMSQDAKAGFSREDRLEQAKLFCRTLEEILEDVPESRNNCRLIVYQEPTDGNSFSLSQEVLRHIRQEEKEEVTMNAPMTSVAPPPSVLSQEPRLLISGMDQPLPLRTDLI


Biological target: T1, FLAG-STING (mouse)
Experiment: affinity purification with mass spectrometry; FLAG-STING immunoprecipitated with anti-FLAG M2 Affinity Gel from lysates of reconstituted Sting-/- MEFs before and after DMXAA for 3 h; 50 mM HEPES-NaOH pH 7.2, 150 mM NaCl, 5 mM EDTA, 1% Triton X-100, overnight at 4 °C; eluted with FLAG peptide; proteins whose amount increased after stimulation and that are annotated as lysosome were selected

| Binder | binding |
| --- | --- |
| Vps4a (protein, UniProt Q8VEJ9 1-437) MTTSTLQKAIDLVTKATEEDKAKNYEEALRLYQHAVEYFLHAIKYEAHSDKAKESIRAKCMQYLDRAEKLKDYLRNKEKHGKKPVKENQSEGKGSDSDSEGDNPEKKKLQEQLMGAVVMEKPNIRWNDVAGLEGAKEALKEAVILPIKFPHLFTGKRTPWRGILLFGPPGTGKSYLAKAVATEANNSTFFSVSSSDLMSKWLGESEKLVKNLFELARQHKPSIIFIDEVDSLCGSRNENESEAARRIKTEFLVQMQGVGNNNDGTLVLGATNIPWVLDSAIRRRFEKRIYIPLPEEAARAQMFRLHLGSTPHNLTDANIHELARKTEGYSGADISIIVRDSLMQPVRKVQSATHFKKVCGPSRTNPSVMIDDLLTPCSPGDPGAIEMTWMDVPGDKLLEPVVCMSDMLRSLATTRPTVNADDLLKVKKFSEDFGQES | binds |
| Vps4b (protein, UniProt P46467 1-444) MASTNTNLQKAIDLASKAAQEDKAGNYEEALQLYQHAVQYFLHVVKYEAQGDKAKQSIRAKCTEYLDRAEKLKEYLKKKEKKPQKPVKEEQSGPVDEKGNDSDGEAESDDPEKKKLQNQLQGAIVIERPNVKWSDVAGLEGAKEALKEAVILPIKFPHLFTGKRTPWRGILLFGPPGTGKSYLAKAVATEANNSTFFSISSSDLVSKWLGESEKLVKNLFQLARENKPSIIFIDEIDSLCGSRSENESEAARRIKTEFLVQMQGVGVDNDGILVLGATNIPWVLDSAIRRRFEKRIYIPLPEAHARAAMFRLHLGSTQNSLTEADFQELGRKTDGYSGADISIIVRDALMQPVRKVQSATHFKKVRGPSRADPNCIVNDLLTPCSPGDPGAIEMTWMDVPGDKLLEPVVSMWDMLRSLSSTKPTVNEQDLLKLKKFTEDFGQEG | binds |
| Tsg101 (protein, UniProt Q61187 1-391) MAVSESQLKKMMSKYKYRDLTVRQTVNVIAMYKDLKPVLDSYVFNDGSSRELVNLTGTIPVRYRGNIYNIPICLWLLDTYPYNPPICFVKPTSSMTIKTGKHVDANGKIYLPYLHDWKHPRSELLELIQIMIVIFGEEPPVFSRPTVSASYPPYTATGPPNTSYMPGMPSGISAYPSGYPPNPSGYPGCPYPPAGPYPATTSSQYPSQPPVTTVGPSRDGTISEDTIRASLISAVSDKLRWRMKEEMDGAQAELNALKRTEEDLKKGHQKLEEMVTRLDQEVAEVDKNIELLKKKDEELSSALEKMENQSENNDIDEVIIPTAPLYKQILNLYAEENAIEDTIFYLGEALRRGVIDLDVFLKHVRLLSRKQFQLRALMQKARKTAGLSDLY | binds |

— article PMC10014584
